# The campaign covered roughly 1,200 compounds. About 20 (2%) were called active. Not shown: some 23% with an inconclusive outcome. The call rests on the fitted dose curve; in most records, active means well fitted inhibition curve with a large enough effect; inconclusive means small, poorly fitted or top-dose-only effect; inactive means no such curve, though single readings can be large or run the other way. Some of the results follow.
# The chains behind the UniProt entries cited, without tags or fusion partners. Where a name states a change or a piece, a line headed by the entry shows the natural chain unless it says otherwise.
# UniProt P11308: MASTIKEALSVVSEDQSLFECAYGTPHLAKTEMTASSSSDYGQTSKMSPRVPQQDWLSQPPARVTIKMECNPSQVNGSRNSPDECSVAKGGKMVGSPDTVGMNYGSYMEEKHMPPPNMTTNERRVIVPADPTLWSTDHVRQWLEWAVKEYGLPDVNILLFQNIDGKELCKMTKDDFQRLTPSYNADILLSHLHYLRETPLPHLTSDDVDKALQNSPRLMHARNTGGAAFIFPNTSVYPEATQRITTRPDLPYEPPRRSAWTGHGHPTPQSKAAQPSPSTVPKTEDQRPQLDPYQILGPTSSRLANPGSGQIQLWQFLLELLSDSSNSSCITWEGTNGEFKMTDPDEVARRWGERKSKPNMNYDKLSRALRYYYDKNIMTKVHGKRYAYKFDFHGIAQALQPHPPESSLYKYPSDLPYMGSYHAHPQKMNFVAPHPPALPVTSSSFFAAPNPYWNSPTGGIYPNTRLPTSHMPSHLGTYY
# Biological target: Transcriptional regulator ERG (Homo sapiens) (UniProt P11308)
# Assay: qHTS for Small Molecule Inhibitors of the ERG Ets/DNA interaction: HTRF assay against cherry picks
# Settings: His-ERG Ets domain with biotin-DNA; series mostly up to 154 µM; activity change, negative = inhibition: at the top concentration
# In short: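 HTRF of His-tagged ERG Ets domain (200 nM solution) with biotin-DNA (200 nM solution) in 300mM KCl, 50mM Tris-HCl pH 7.5, 1mM EDTA, 1mM DTT; 10 min RT. Anti-His cryptate donor plus streptavidin acceptor added, 10 min, FRET read at 615/665 nm.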
# Potency means the concentration at half of the fitted maximal effect.
Compound,"activity change, negative = inhibition",Potency
O=C1NCCCN1Cc1ccc(F)cc1Cl,inactive: -26.5%,–
CN1/C(=C\C(=O)c2cccs2)C(C)(C)c2ccccc21,inactive: -14.4%,–
CC1CC(C)CN(S(=O)(=O)c2ccc(NC(=O)CN3C(=O)NC(C)(c4ccccc4)C3=O)cc2)C1 (centres undefined),inactive: -6.37%,–
CCOc1ccc(NC(=O)Cc2c(C(=O)O)n(C)c3ccccc23)cc1,inactive: -27.2%,–
COc1cccc(CC2(CO)CCN(S(=O)(=O)N(C)C)CC2)c1,inactive: -7%,–
CCOCCCNCC(=O)Nc1ccc(S(=O)(=O)NC(C)CC)cc1 (centres undefined),inactive: -10.7%,–
Cc1cc2nc(-c3ccc[nH]c3=O)n(Cc3ccccc3F)c2cc1C,inactive: -17.8%,–
O=C(O)CN1C(=O)C(=O)N(Cc2ccc(C(F)(F)F)cc2)C1=O,inactive: -2.71%,–
CCc1cccc(CC)c1-n1c(-c2cccnc2)n[nH]c1=S,inactive: -20%,–
CC(C)C1NC(=S)N(Cc2ccccc2)C1=O (centres undefined),inactive: -29%,–
Cc1ccc(S(=O)(=O)N(CC(=O)NCc2cccnc2)c2ccc(F)cc2)cc1,inactive: -10.8%,–
CCOc1ccc(/C=C2\SC(=S)N(C)C2=O)cc1OC,inactive: -19.3%,–
COc1ccc(C(=O)Nc2ccnn2C2CCN(Cc3cn(C)nc3C)CC2)cc1,inactive: -5.15%,–
CC(C)NS(=O)(=O)c1ccc(CCC(=O)NCc2ccncc2)cc1,inactive: -24.6%,–
O=C(NC(=S)NNS(=O)(=O)c1ccc(Cl)cc1)c1cccnc1,inactive: 0.106%,–
O=C(NCc1cccc(Cl)c1)c1ccncc1,inactive: -9.66%,–
Cc1ccc(C2=NN(CC(=O)NCCN(C)C)C(=O)CC2)cc1,inactive: -25.4%,–
CN(C)c1ccc2c(c1)C(=NO)c1ccccc1-2,–,active: 70.8 µM
CCOc1cc(CNc2ccc(O)cc2)ccc1OCc1ccc(Cl)cc1,inactive: -8.49%,–
Cn1c(Cl)cnc1C1CC(=O)c2cc(Cl)ccc2O1 (centres undefined),inactive: -20.8%,–
CCCc1c(OCCCCc2nn[nH]n2)ccc(C(C)=O)c1O,inactive: -7.64%,–
OC(CNc1ncnc2sccc12)c1ccccc1 (centres undefined),inactive: -4.08%,–
OCCN1CCN(CCCN2c3ccccc3Sc3ccc(Cl)cc32)CC1,inactive: -8.81%,–
CCOC(=O)COc1ccccc1/C=N/O,inactive: -4.3%,–
COc1ccccc1N1CCN(C(=O)CSc2nc(C)c(Cc3ccccc3)c(=O)[nH]2)CC1,inactive: -4.99%,–
CCOC(=O)c1ccc(-c2ccc(/C=C(\C#N)C(=O)Nc3cccc(C)c3)o2)cc1,inactive: -11%,–
Nc1cc(-c2nn[nH]n2)ccc1F,inactive: -14.6%,–

# An excerpt of these results, as tab-separated lines.
Compound	activity change, negative = inhibition	Potency
O=C(NCc1cccc(Cl)c1)c1ccncc1	inactive: -9.66%	–
Cc1ccc(C2=NN(CC(=O)NCCN(C)C)C(=O)CC2)cc1	inactive: -25.4%	–
CN(C)c1ccc2c(c1)C(=NO)c1ccccc1-2	–	active: 70.8 µM

# Later entries

Compound,"activity change, negative = inhibition",Potency
CC(C)(C)SC(=O)CC1NS(=O)(=O)OC2CCCCC12 (centres undefined),inactive: -25.9%,–
COc1ccc(C(=S)N2CCN(c3ccccc3C)CC2)cc1OC,inactive: -3.82%,–
CCOC(=O)NC(=S)Nc1ccc(C(C)(C)C)cc1Br,inactive: -30.9%,–
CCN(CC(=O)Nc1ccc(N2CCOCC2)cc1)CC(=O)NC(C)(C)C,inactive: 9.44%,–
COCc1cc(C)nc(SCC(=O)Nc2ccc3c(c2)OCCO3)c1C#N,inactive: -3.29%,–
COc1ccc(S(=O)(=O)N2CCc3ccccc32)cc1C(=O)N(CC(C)C)C1CCS(=O)(=O)C1 (centres undefined),inactive: -14.9%,–
COc1ccc(-c2csc3ncnc(N4CCN(S(=O)(=O)c5ccccc5C#N)CC4)c23)cc1,inactive: 206%,–
O=C(NCc1ccccc1)N1CCNCC1,inactive: -7.75%,–
CC1(C)C2CCC1(C)C(NCC(O)COc1ccc(C#N)cc1)C2 (centres undefined),inactive: -2.02%,–
CN1CCN(C(=O)C2=C[C@@H](C(C)(C)C)C[C@@H](OCc3ccc(CO)cc3)O2)CC1,inactive: -24.8%,–
CNC(=O)c1cccc(-n2c(C)nc3cccnc32)c1C,inactive: 3.18%,–
CCOc1ccc(C(CC(=O)O)NC(=O)Cc2ccc(Cl)cc2)cc1 (centres undefined),inactive: -9.92%,–
COc1ccc(NC(=O)C2CC(=O)n3c(nc4ccccc43)N2)cc1 (centres undefined),inactive: -19.4%,–
Cc1cc(NC(=O)COc2ccc(F)c(Cl)c2)no1,inactive: -2.39%,–
COc1ccc(S(=O)(=O)NCC2CC3C=CC2C3)cc1OC (centres undefined),inactive: -23.8%,–
CC(C)C(=O)Nc1ccc(-c2nc3ncccc3o2)cc1,inactive: -29.3%,–
Cc1ccccc1OCC(=O)Nc1ccc2[nH]ncc2c1,inactive: -5.15%,–
COc1cc(/C=C/C(=O)OCC(=O)NC(=O)NC2CCCCC2C)ccc1OC(F)F (centres undefined),inactive: -0.477%,–
Cc1nc(Nc2cccc(F)c2)c2oc3ccccc3c2n1,inactive: -29.2%,–
COc1ccc(C)cc1N(C(=O)c1ccc(C#N)cc1)C1=NC(C)(C)CS1,inactive: -32%,–
Cc1ccccc1NC(=O)c1ccccc1-c1ccccc1,inactive: -25.8%,–
O=C(c1c(F)cccc1Cl)N1CCN(c2ccccn2)CC1,inactive: -11%,–
COc1ccc(NS(=O)(=O)c2cccc(NC(=O)NC3CCCCC3)c2)cc1,inactive: -35.2%,–
Nc1ccc2[nH]ncc2c1,inactive: -70.6%,–
COc1ccc(CNC(=O)N[C@@H](Cc2c[nH]c3ccccc23)C(=O)O)cc1,inactive: -23.2%,–
Cc1ccc(NC(=O)Cc2c(O)c3ccccc3[nH]c2=O)c(C)c1,inactive: -9.39%,–
O=C(CCc1c[nH]c2ccccc12)NCc1ccco1,inactive: -5.25%,–
